Molecules are shown by their SMILES. Converted amounts (≈) assume the structure as drawn.

Data on 1 molecule can be found in patent US8092810B2, “Use of polypeptides having antimicrobial activity” (Novozymes A/S, priority 2006, dated 2012).

In experiment [1] the test system is Klebsiella pneumoniae ATCC 10031. The experiment can be described thus: MIC broth microdilution. It is filed as cell-based. The note with it: ATCC10031; Klebsiella pneumoniae ATCC 10031, Gram −; MHB, 35° C., 24 hours. The protocol: (§1) Briefly, the MIC was determined by microbroth dilution assay in a 96 well plate. 4-5 colonies of each bacterium tested were added to 5 ml of MHB, placed in a 35° C. shaker until the OD 600 nm reached 0.08-0.10. The inoculum was diluted 1:100 and 50 microliters were added to each well which contained 50 microliters of serial two fold dilutions of Lento, vancomycin or ciprofloxacin. Each concentration of antibiotic or Lento was tested in duplicate. The plate was placed at 35° C. overnight. MICs were determined after 24 hours incubation and defined by the well containing the lowest amount of antibiotic with no visible growth.

The test system of experiment [2] is Pseudomonas aeruginosa ATCC 27853. The experiment can be described thus: MIC broth microdilution. The note with it: ATCC27853; Pseudomonas aeruginosa ATCC 27853, Gram −; MHB, 35° C., 24 hours. It is filed as cell-based. How it is done: as §1

In the case of `O=C(O)c1cn(C2CC2)c2cc(N3CCNCC3)c(F)cc2c1=O` [Ciprofloxacin], the MIC in experiment [1] is 0.0625 µg/mL (≈ 0.189 µM); in experiment [2] it was 0.125 to 0.25 µg/mL (≈ 0.377 to 0.754 µM).
